Results published in PMC10544015 (Journal of Medicinal Chemistry, 2023).
Square brackets hold non-standard residues; d marks the D form. Ahx = NCCCCCC(=O)O

Tests used:
peptide synthesis = conditions: TFA salts; for final HPLC purity / isolated yield: whole synthesis
[1] = general procedure: Fmoc solid-phase peptide synthesis; Rink amide AM resin (loading 0.13–0.6 mmol/g); preloaded Tyr(tBu)-Wang (0.45 mmol/g) and Ala-Wang (0.68 mmol/g); HBTU/DIPEA (manual); DIC/Oxyma (automated); conditions: whole synthesis, scale of the general procedure 0.1 mmol, TFA salts; for final HPLC purity: reversed-phase HPLC

| Substance | final HPLC purity (peptide synthesis) | isolated yield (peptide synthesis) | difficulty met (peptide synthesis; cyclisation step) | final HPLC purity [1] | isolated yield [1] |
| --- | --- | --- | --- | --- | --- |
| Ac-Ser-Trp-Arg-Gln-Ala-Ala-Phe-c[Pra-Asp-Ser-Tyr-Azk]-NH2 | >99% | 7% | – | – | – |
| Ac-Ser-Trp-Arg-Gln-Ala-Ala-Phe-c[Pra-Asp-Ser-Tyr-Azo]-NH2 | 98% | 7% | – | – | – |
| Ac-Ser-Trp-Arg-Gln-Ala-Ala-c[Pra-Val-Asp-Ser-Azk]-NH2 | >99% | 6% | – | – | – |
| Ac-Ser-Trp-Arg-Gln-Ala-Ala-c[Pra-Val-Asp-Ser-Azo]-NH2 | 98% | 9% | a dimeric side product was generated alongside the desired product | – | – |
| Ac-Ser-Trp-Arg-Gln-Ala-c[Azk-Phe-Val-Asp-Pra]-Tyr-NH2 | 99% | 4% | – | – | – |
| Ac-Ser-Trp-Arg-Gln-Ala-c[D-Pra-Phe-Val-Asp-Azk]-Tyr-NH2 | 99% | 15% | – | – | – |
| Ac-Ser-Trp-Arg-Gln-Ala-c[Pra-Phe-Val-Asp-Azk]-Tyr-NH2 | – | – | – | >99% | 19% |
| Ac-Ser-Trp-Arg-Gln-Ala-c[Pra-Phe-Val-Asp-Azo]-Tyr-NH2 | >99% | 11% | – | – | – |
| Ac-Ser-Trp-Arg-Gln-Ala-c[hPra-Phe-Val-Asp-Azk]-Tyr-NH2 | 99% | 26% | – | – | – |
| Ac-c[Azk-Trp-Arg-Gln-Pra]-Ala-Phe-Val-Asp-Ser-Tyr-NH2 | 97% | 3% | – | – | – |
| Ac-c[D-Pra-Trp-Arg-Gln-Azk]-Ala-Phe-Val-Asp-Ser-Tyr-NH2 | 96% | 8% | – | – | – |
| Ac-c[Pra-Trp-Arg-Gln-Azk]-Ala-Phe-Val-Asp-Ser-Tyr-NH2 | – | – | – | >99% | 11% |
| Ac-c[Pra-Trp-Arg-Gln-Azk]-c[Pra-Phe-Val-Asp-Azk]-Tyr-NH2 | 99% | 23% | – | – | – |
| Ac-c[Pra-Trp-Arg-Gln-Azo]-Ala-Phe-Val-Asp-Ser-Tyr-NH2 | 98% | 8% | – | – | – |
| Ac-c[hPra-Trp-Arg-Gln-Azk]-Ala-Phe-Val-Asp-Ser-Tyr-NH2 | 99% | 18% | – | – | – |
| H-K[Ahx]WRQAAFVDSY-OH | – | – | – | 98% | 7% |
| H-Lys-Ahx-c[Pra-Trp-Arg-Gln-Azk]-c[Pra-Phe-Val-Asp-Azk]-Tyr-NH2 | – | – | – | 99% | 12% |
| H-SWRQAAFVDSYCWA-OH | 96% | 6% | – | – | – |
| H-WRQAAFVDSY-OH | – | – | – | >99% | 43% |
